Data as given in PMC12038233.

Columns and labels:
[1] = test system: CiWRKY27 (Citrus ichangensis (Ichang papeda)); assay: EMSA; conditions: Chemiluminescent EMSA kit (Beyotime), manufacturer's manual; pH and temperature not stated; recombinant protein; protein details: His (pHMGWA vector); label: biotin
[2] = test system: CiWRKY27 (Citrus ichangensis (Ichang papeda)); assay: competition with a labelled probe; conditions: dose-dependent competition against labeled P2 probe; Chemiluminescent EMSA kit (Beyotime), manufacturer's manual; pH and temperature not stated; recombinant protein; protein details: His (pHMGWA vector)

“ATAATTTCTTGGGGCAATCATTACTCTCTTATAATTACAA (double strand) [mutant-SPDS1-W2-probe]”: binds more weakly [1].
“ATAATTTCTTGGGTCAATCATTACTCTCTTATAATTACAA (double strand) [SPDS1-W2 unlabeled competitor]”: binds [2].
“ATAATTTCTTGGGTCAATCATTACTCTCTTATAATTACAA (double strand) [SPDS1-W2-probe (P2)]”: binds [1].
“TATTTAATTCGTTTAAAGGGTCAAAAAAATTAAAGAAAGT (double strand) [SPDS1-W1-probe (P1)]”: no binding [1].

The exact form of at least one protein or probe is not confirmed. For some of these results: A negative result means that nothing was seen under these conditions. For some of these results: The comparison behind a weaker result is the experiment's own reference, which may not be listed here.
